Data reported in the supplement of paper PMC7125110.
± gives the standard error. Many entries were measured with a wide error.

B1: glmS ribozyme (parent)
chain: AUAAAAGCGCCAGAACUACAGAAAUGUAGUUGACGAGGAGGAGGUUUAUCGAAUUUUCGGCGGAUGCCUCCAAA

Variants of: B1
Assay: kcat; higher = faster cleavage; RNA array
Conditions: with glucosamine-6-phosphate
In short: (§1)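 kobs was derived by fitting per-tile medians to one- or two-exponential decays after normalising signals to baseline and to non-cleaving reference variants. Those signals came from barcoded ribozyme variants transcribed in situ by E. coli RNA polymerase on sequenced MiSeq chips, followed through a hybridised Cy3 probe at 37 °C and imaged over ~14 h. Glucosamine-6-phosphate (40 μM to 10 mM) in HEPES/KCl/Mg(OAc)2 buffer was flowed in. Weighted Michaelis–Menten fits across concentrations then gave kcat and KM.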
AUAAACGCGCCAGAUCUACAGAAAUGUAGUUGACGAGGAGGAGGUUUAUCGAAUUUUCGGCGGAUGCCUCCAAA [A6C A15U] showed a kcat of 1.71e-05 ± 1.1e-05 s⁻¹.
AUAAAGGCGCCAGAACUACAGAAAUGUAGUUGACGAGGAGGAGGUUUAUCGAAUUUUCGGCGGAUGCCUCAAAA [A6G C71A] showed a kcat of 3.93e-05 ± 3.2e-05 s⁻¹.
In the case of AUAAAGGCGCCAGAACUACAGAAAUGUAGUUUACGAGGAGGAGGUUUAUGGAAUUUGCGGAGGAUUCCUCCAAA [A6G G32U C50G U57G C61A G66U], the kcat is reported as 0.000127 ± 8.5e-05 s⁻¹.
AUAAAUGCGCCAGAACUACAGAAAUGUAGUUGACGAGGAGGAGGUUUAUGGUAUUUUCGGGGGAUGCUUCCAAA [A6U C50G A52U C61G C68U] was tested, and the kcat was 3.87e-05 ± 1.1e-05 s⁻¹.
Variant AUAAAUGCGCCAUAACUACAGAAAUGUAGUUGACGAUGAGGAGGUUUUUCGAAUUUUCGGCGGAUGCCGCCAAA [A6U G13U G37U A48U U69G] has a kcat of 4.37e-05 ± 3.1e-05 s⁻¹.
In the case of AUAAAUGCGCCAGAACUACAGAAAUGUAGUUGACGAGGAGGAGGUUUAUCGAAUUUUCAGCGGAUGCCUCCAAA [A6U G59A], the kcat is reported as < 1e-05 s⁻¹.
With AUAAAAGAGUCAGAACUACAGAAAUGUAGUUGACGAGGAGGAGGUUUAUCGAAUUUUCGGCGGAUGCAUCCAAA [C8A C10U C68A] the kcat was 3.93e-05 ± 2.6e-05 s⁻¹.
For AUAAAAGGGACAGAACUACAGAAAUGUAGUUGACGAGGAGGAGGUUUAUCGAAUUUUCGGCGGAUGCCUCCAAA [C8G C10A], the kcat was < 1e-05 s⁻¹.
For AUAAAAGCGACAGAACUACAGAAAUGUAGUUGACGAGGAGGAGGUUUAUCGAAUUUUCGGCGGAUGCCUGCAAA [C10A C70G], the kcat was 3.57e-05 ± 2.4e-05 s⁻¹.
For AUAAAAGCGUCAGAACUACAGAAAUGUAGUUGACGAGGAGGAGGUUUAUCGAUUUUUCCGCGGAUGCGUCCAAA [C10U A53U G59C C68G], the kcat was < 1e-05 s⁻¹.
With AUAAAAGCGUCAGAACUACAGAAAUGUAGUUGAAGAGGAGGAGGUUUAUGGAAUUUUCGGCGGAAGCCUCCAAA [C10U C34A C50G U65A] the kcat was 0.000166 ± 0.00014 s⁻¹.
For AUAAAAGCGUCAGAACUACAGAAAUGUAGUUGACGAGGAGGAGGUUUAUCGAAUUUUCGGCGAAUGCCUCCAAA [C10U G63A], the kcat was < 1e-05 s⁻¹.
AUAAAAGCGCAAGCACUACAGAAAUGUAGUUGACGAGGAGGAGGUUUAUCGAAUUUUCGGCGGAUGCCUCCAAA [C11A A14C] was tested, and the kcat was 6.31e-05 ± 3.4e-06 s⁻¹.
In the case of AUAAAAGCGCAAGAACUACAGAAAUGUAGUUGACGAGGAGGAGGUUUAUCGAAUUUUCGGCGGUUGCCUCCAAA [C11A A64U], the kcat is reported as < 1e-05 s⁻¹.
Variant AUAAAAGCGCGAGAACUACAGAAAUGUAGUUGACGAGGAGGAGGUUUAUCGAAUUUUCGGCGGAUGACUCGAAA [C11G C67A C71G] has a kcat of 5.25e-05 ± 2.8e-05 s⁻¹.
AUAAAAGCGCGAGAACUACAGAAAUGUAGUUGACGAGGAGGAGGUUUAUCGAAUUUUCGGCGGAUGCCUCGAAA [C11G C71G] gave a kcat of 2.8e-05 ± 2.3e-05 s⁻¹.
AUAAAAGCGCCCGAAUUACAGAAAUGUAGUUGACGAGGAGUAGGUUUAUCGAAUUUUCGGCGGAUGCCUCCAAA [A12C C16U G41U] showed a kcat of 0.000775 ± 0.00044 s⁻¹.
AUAAAAGCGCCGGACCUACAGAAAUGUAGUUGACGAGGAGGAGGUUUAUCGAAUUUUCGGCGGAUGCCUCCAAA [A12G A15C] was tested, and the kcat was 0.000514 ± 0.00013 s⁻¹.
AUAAAAGCGCCGGAACUACAGAAAUGUAGUUGACGAGGAGGAGGUUUAUCGAAUUUUCGGCGGAUGCCCCCAAA [A12G U69C] gave a kcat of 0.000893 ± 0.00026 s⁻¹.

Variants of: B1
Assay: self-cleavage kobs at 40 uM GlcN6P; higher = faster cleavage; RNA array
Conditions: with glucosamine-6-phosphate
In short: as §1
In the case of AUAAAGGCGCCAGAACUACAGAAAUGUAGUUUACGAGGAGGAGGUUUAUGGAAUUUGCGGAGGAUUCCUCCAAA [A6G G32U C50G U57G C61A G66U], the “self-cleavage kobs at 40 uM GlcN6P” value is reported as 3e-05 ± 1.5e-05 s⁻¹.
With AUAAAAGAGUCAGAACUACAGAAAUGUAGUUGACGAGGAGGAGGUUUAUCGAAUUUUCGGCGGAUGCAUCCAAA [C8A C10U C68A] the “self-cleavage kobs at 40 uM GlcN6P” value was 3.39e-05 ± 2.5e-05 s⁻¹.

Variants of: B1
Assay: self-cleavage kobs at 160 uM GlcN6P; higher = faster cleavage; RNA array
Conditions: with glucosamine-6-phosphate
In short: as §1
AUAAAUGCGCCAGAACUACAGAAAUGUAGUUGACGAGGAGGAGGUUUAUGGUAUUUUCGGGGGAUGCUUCCAAA [A6U C50G A52U C61G C68U] was tested, and the “self-cleavage kobs at 160 uM GlcN6P” value was 2.71e-05 ± 2.4e-05 s⁻¹.
In the case of AUAAAAGCGCGAGAACUACAGAAAUGUAGUUGACGAGGAGGAGGUUUAUCGAAUUUUCGGCGGAUGCCUCGAAA [C11G C71G], the “self-cleavage kobs at 160 uM GlcN6P” value is reported as 2.41e-05 ± 1.5e-05 s⁻¹.
For AUAAAAGCGCCGGAACUACAGAAAUGUAGUUGACGAGGAGGAGGUUUAUCGAAUUUUCGGCGGAUGCCCCCAAA [A12G U69C], the “self-cleavage kobs at 160 uM GlcN6P” value was 2.91e-05 ± 2.2e-05 s⁻¹.

Variants of: B1
Assay: KM; higher = weaker cofactor use; RNA array
Conditions: with glucosamine-6-phosphate
In short: as §1
AUAAAUGCGCCAGAACUACAGAAAUGUAGUUGACGAGGAGGAGGUUUAUCGAAUUUUCAGCGGAUGCCUCCAAA [A6U G59A] gave a KM of 125 ± 100 µM.
AUAAAAGCGCAAGCACUACAGAAAUGUAGUUGACGAGGAGGAGGUUUAUCGAAUUUUCGGCGGAUGCCUCCAAA [C11A A14C] showed a KM of 2820 ± 410 µM.
With AUAAAAGCGCCCGAAUUACAGAAAUGUAGUUGACGAGGAGUAGGUUUAUCGAAUUUUCGGCGGAUGCCUCCAAA [A12C C16U G41U] the KM was 2070 ± 2000 µM.
AUAAAAGCGCCGGACCUACAGAAAUGUAGUUGACGAGGAGGAGGUUUAUCGAAUUUUCGGCGGAUGCCUCCAAA [A12G A15C] gave a KM of 14900 ± 5200 µM.
AUAAAAGCGCCGGAACUACAGAAAUGUAGUUGACGAGGAGGAGGUUUAUCGAAUUUUCGGCGGAUGCCCCCAAA [A12G U69C] showed a KM of 3900 ± 1900 µM.

Variants of: B1
Assay: self-cleavage kobs at 640 uM GlcN6P; higher = faster cleavage; RNA array
Conditions: with glucosamine-6-phosphate
In short: as §1
For AUAAAAGAGUCAGAACUACAGAAAUGUAGUUGACGAGGAGGAGGUUUAUCGAAUUUUCGGCGGAUGCAUCCAAA [C8A C10U C68A], the “self-cleavage kobs at 640 uM GlcN6P” value was 0.000904 ± 0.00071 s⁻¹.
AUAAAAGCGCCGGACCUACAGAAAUGUAGUUGACGAGGAGGAGGUUUAUCGAAUUUUCGGCGGAUGCCUCCAAA [A12G A15C] was tested, and the “self-cleavage kobs at 640 uM GlcN6P” value was 1.42e-05 ± 8.5e-06 s⁻¹.

Variants of: B1
Assay: self-cleavage kobs at 2500 uM GlcN6P; higher = faster cleavage; RNA array
Conditions: with glucosamine-6-phosphate
In short: as §1
In the case of AUAAAAGAGUCAGAACUACAGAAAUGUAGUUGACGAGGAGGAGGUUUAUCGAAUUUUCGGCGGAUGCAUCCAAA [C8A C10U C68A], the “self-cleavage kobs at 2500 uM GlcN6P” value is reported as 9.63e-05 ± 5.4e-05 s⁻¹.
For AUAAAAGCGACAGAACUACAGAAAUGUAGUUGACGAGGAGGAGGUUUAUCGAAUUUUCGGCGGAUGCCUGCAAA [C10A C70G], the “self-cleavage kobs at 2500 uM GlcN6P” value was 0.000324 ± 0.00018 s⁻¹.
In the case of AUAAAAGCGCGAGAACUACAGAAAUGUAGUUGACGAGGAGGAGGUUUAUCGAAUUUUCGGCGGAUGCCUCGAAA [C11G C71G], the “self-cleavage kobs at 2500 uM GlcN6P” value is reported as 2.68e-05 ± 2.3e-05 s⁻¹.

Variants of: B1
Assay: self-cleavage kobs at 10000 uM GlcN6P; higher = faster cleavage; RNA array
Conditions: with glucosamine-6-phosphate
In short: as §1
In the case of AUAAAAGAGUCAGAACUACAGAAAUGUAGUUGACGAGGAGGAGGUUUAUCGAAUUUUCGGCGGAUGCAUCCAAA [C8A C10U C68A], the “self-cleavage kobs at 10000 uM GlcN6P” value is reported as 2.72e-05 ± 2.4e-05 s⁻¹.
For AUAAAAGCGACAGAACUACAGAAAUGUAGUUGACGAGGAGGAGGUUUAUCGAAUUUUCGGCGGAUGCCUGCAAA [C10A C70G], the “self-cleavage kobs at 10000 uM GlcN6P” value was 1.78e-05 ± 9e-06 s⁻¹.
With AUAAAAGCGCGAGAACUACAGAAAUGUAGUUGACGAGGAGGAGGUUUAUCGAAUUUUCGGCGGAUGACUCGAAA [C11G C67A C71G] the “self-cleavage kobs at 10000 uM GlcN6P” value was 2.54e-05 ± 1.6e-05 s⁻¹.
